Laboratory results reported in PubChem BioAssay AID248 (DTP/NCI, 2004).
The list is a part of this screen's results and no random one: it is rich in T/C values a quarter to a half above the control, in often repeated tests (any T/C) and in doses without a T/C. Other doses and runs of a compound stand elsewhere. T/C gives the treated animals as a percentage of the vehicle group. Some entries give survivors of the animals treated and no T/C: the source files T/C as zero there, which appears to mark a toxic dose or a test without result, not a measured value. Some survivor counts are full or nearly so, which does not show that the dose was tolerated: survival well below the control is almost never listed, so the zero probably covers shortened survival too. Survivors were counted at the toxicity check, usually on the fifth day, unless a day is given; later deaths do not show. Schedule codes are those of the source, read here as Q, the interval in days (D) or hours (H), X, the number of doses. Some doses were run more than once; the values are given in rising order. For survival time, the PubChem record calls one and a half times the control and up active, and a quarter to a half above the control has no call in these data; cut-offs in other NCI protocols can differ. Some schedules carry Z or #; the key to these is not given. Some T/C values carry the count of animals alive at the toxicity check (mostly the fifth day); without a count, all were alive then.

System: L1210 leukemia ip in BDF1 mice, survival T/C
Assay: NCI In Vivo Anticancer Drug Screen. Data for tumor model L1210 Leukemia (intraperitoneal) in B6D2F1 (BDF1) mice
Conditions: higher T/C = longer survival
[1] = T/C endpoint: mean survival time, dose: 400.0 mg/kg/injection, schedule: Q01DX001 (ip), vehicle: carboxymethylcellulose (CMC)

Structure (SMILES): N/C(=N\O)c1cn(C2OC(CO)C(O)C2O)c2ncnc(N)c12 (stereo not drawn)
- T/C (T/C endpoint: mean survival time, dose: 0.37 mg/kg/injection, schedule: Q01DX009 (ip), vehicle: saline): 125 % of control
- T/C (T/C endpoint: mean survival time, dose: 0.39 mg/kg/injection, schedule: Q01DX005 (ip), vehicle: saline): 130 % of control
- T/C (T/C endpoint: mean survival time, dose: 0.5 mg/kg/injection, schedule: Q01DX009 (ip), vehicle: saline): 128 % of control
- T/C (T/C endpoint: mean survival time, dose: 0.5 mg/kg/injection, schedule: Q03HX008 (ip), vehicle: saline): 128 % of control
- T/C (T/C endpoint: mean survival time, dose: 0.5 mg/kg/injection, schedule: Q03HX016 (ip), vehicle: saline): 134 % of control
- T/C (T/C endpoint: mean survival time, dose: 0.5 mg/kg/injection, schedule: Q03HX024 (ip), vehicle: saline, evaluated on day 30): 142 % of control
- T/C (T/C endpoint: mean survival time, dose: 0.5 mg/kg/injection, schedule: Q03HX024 (ip), vehicle: saline, evaluated on day 60): 130 % of control
- T/C (T/C endpoint: mean survival time, dose: 0.57 mg/kg/injection, schedule: Q01DX009 (ip), vehicle: saline): 127 % of control
- T/C (T/C endpoint: mean survival time, dose: 0.85 mg/kg/injection, schedule: Q01DX009 (ip), vehicle: saline): 138 % of control
- T/C (T/C endpoint: mean survival time, dose: 1.0 mg/kg/injection, schedule: Q01DX005 (ip), vehicle: saline): 132 % of control
- T/C (T/C endpoint: mean survival time, dose: 1.0 mg/kg/injection, schedule: Q01DX009 (ip), vehicle: saline, evaluated on day 30): 142, 146, 149 % of control
- T/C (T/C endpoint: mean survival time, dose: 1.0 mg/kg/injection, schedule: Q01DX009 (ip), vehicle: saline, evaluated on day 60): 140 % of control
- T/C (T/C endpoint: mean survival time, dose: 1.0 mg/kg/injection, schedule: Q01DX015 (ip), vehicle: carboxymethylcellulose (CMC)): 142 % of control
- T/C (T/C endpoint: mean survival time, dose: 1.0 mg/kg/injection, schedule: Q03HX016 (ip), vehicle: saline): 138 % of control
- T/C (T/C endpoint: mean survival time, dose: 1.0 mg/kg/injection, schedule: Q03HX024 (ip), vehicle: saline): 139 % of control
- T/C (T/C endpoint: mean survival time, dose: 1.8 mg/kg/injection, schedule: Q01DX009 (ip), vehicle: saline): 141 % of control
- T/C (T/C endpoint: mean survival time, dose: 1.8 mg/kg/injection, schedule: Q01DX015 (ip), vehicle: carboxymethylcellulose (CMC)): 141 % of control
- T/C (T/C endpoint: mean survival time, dose: 2.0 mg/kg/injection, schedule: Q01DX005 (ip), vehicle: saline): 144 % of control
- T/C (T/C endpoint: mean survival time, dose: 2.0 mg/kg/injection, schedule: Q01DX009 (ip), vehicle: saline, evaluated on day 30): 149 % of control
- T/C (T/C endpoint: mean survival time, dose: 2.0 mg/kg/injection, schedule: Q01DX009 (ip), vehicle: saline, evaluated on day 60): 138 % of control
- T/C (T/C endpoint: mean survival time, dose: 2.0 mg/kg/injection, schedule: Q03HX008 (ip), vehicle: saline): 148 % of control
- T/C (T/C endpoint: mean survival time, dose: 2.0 mg/kg/injection, schedule: Q03HX016 (ip), vehicle: saline): 141 % of control
- T/C (T/C endpoint: mean survival time, dose: 2.0 mg/kg/injection, schedule: Q04DX003 (ip), vehicle: saline): 136 % of control
- T/C (T/C endpoint: mean survival time, dose: 3.0 mg/kg/injection, schedule: Q01DX015 (ip), vehicle: carboxymethylcellulose (CMC)): 142 % of control
- T/C (T/C endpoint: mean survival time, dose: 3.13 mg/kg/injection, schedule: Q01DX009 (ip), vehicle: saline): 145 % of control
- T/C (T/C endpoint: mean survival time, dose: 4.0 mg/kg/injection, schedule: Q01DX009 (ip), vehicle: saline): 137 % of control
- survivor count (T/C endpoint: mean survival time, dose: 4.0 mg/kg/injection, schedule: Q03HX008 (ip), vehicle: saline): 8 of 10
- survivor count (T/C endpoint: mean survival time, dose: 4.0 mg/kg/injection, schedule: Q03HX016 (ip), vehicle: saline): 8 of 10
- survivor count (T/C endpoint: mean survival time, dose: 4.0 mg/kg/injection, schedule: Q03HX024 (ip), vehicle: saline): 1 of 6 and 6 of 10
- T/C (T/C endpoint: mean survival time, dose: 4.0 mg/kg/injection, schedule: Q04DX003 (ip), vehicle: saline, evaluated on day 30): 135 % of control
- T/C (T/C endpoint: mean survival time, dose: 4.0 mg/kg/injection, schedule: Q04DX003 (ip), vehicle: saline, evaluated on day 60): 149 % of control
- T/C (T/C endpoint: mean survival time, dose: 6.6 mg/kg/injection, schedule: Q01DX001 (ip), vehicle: carboxymethylcellulose (CMC)): 132 % of control
- T/C (T/C endpoint: mean survival time, dose: 6.6 mg/kg/injection, schedule: Q01DX001 (ip), vehicle: saline): 143 % of control
- T/C (T/C endpoint: mean survival time, dose: 8.0 mg/kg/injection, schedule: Q01DX009 (ip), vehicle: saline): 142 % of control
- T/C (T/C endpoint: mean survival time, dose: 8.0 mg/kg/injection, schedule: Q08DX002 (ip), vehicle: saline): 129 % of control
- T/C (T/C endpoint: mean survival time, dose: 10.0 mg/kg/injection, schedule: Q01DX001 (ip), vehicle: carboxymethylcellulose (CMC)): 134 and 148 % of control
- T/C (T/C endpoint: mean survival time, dose: 10.0 mg/kg/injection, schedule: Q01DX001 (ip), vehicle: saline): 143 % of control
- T/C (T/C endpoint: mean survival time, dose: 12.5 mg/kg/injection, schedule: Q01DX001 (ip), vehicle: other): 139 % of control
- T/C (T/C endpoint: mean survival time, dose: 12.5 mg/kg/injection, schedule: Q01DX001 (ip), vehicle: water): 136 % of control
- survivor count (T/C endpoint: mean survival time, dose: 12.5 mg/kg/injection, schedule: Q01DX009 (ip), vehicle: saline): 6 of 6
- T/C (T/C endpoint: mean survival time, dose: 15.0 mg/kg/injection, schedule: Q01DX001 (ip), vehicle: carboxymethylcellulose (CMC)): 143 % of control
- T/C (T/C endpoint: mean survival time, dose: 15.0 mg/kg/injection, schedule: Q01DX001 (ip), vehicle: saline): 148 % of control
- T/C (T/C endpoint: mean survival time, dose: 16.0 mg/kg/injection, schedule: Q04DX003 (ip), vehicle: saline): 147 % of control
- T/C (T/C endpoint: mean survival time, dose: 16.0 mg/kg/injection, schedule: Q08DX002 (ip), vehicle: saline): 137 % of control
- T/C (T/C endpoint: mean survival time, dose: 20.0 mg/kg/injection, schedule: Q01DX001 (ip), vehicle: carboxymethylcellulose (CMC)): 135 % of control
- survivor count (T/C endpoint: mean survival time, dose: 20.0 mg/kg/injection, schedule: Q01DX009 (ip), vehicle: saline): 2 of 6
- survivor count (T/C endpoint: mean survival time, dose: 25.0 mg/kg/injection, schedule: Q01DX009 (ip), vehicle: saline): 5 of 6
- T/C (T/C endpoint: mean survival time, dose: 32.0 mg/kg/injection, schedule: Q01DX001 (ip), vehicle: saline): 145 % of control [7 of 10 alive]
- T/C (T/C endpoint: mean survival time, dose: 32.0 mg/kg/injection, schedule: Q04DX003 (ip), vehicle: saline, evaluated on day 30): 129 % of control
- T/C (T/C endpoint: mean survival time, dose: 32.0 mg/kg/injection, schedule: Q04DX003 (ip), vehicle: saline, evaluated on day 60): 140 % of control
- T/C (T/C endpoint: mean survival time, dose: 40.0 mg/kg/injection, schedule: Q01DX001 (ip), vehicle: carboxymethylcellulose (CMC)): 137 % of control
- survivor count (T/C endpoint: mean survival time, dose: 50.0 mg/kg/injection, schedule: Q01DX009 (ip), vehicle: saline): 0 of 6
- survivor count (T/C endpoint: mean survival time, dose: 80.0 mg/kg/injection, schedule: Q01DX001 (ip), vehicle: carboxymethylcellulose (CMC)): 0 of 4
- survivor count (T/C endpoint: mean survival time, dose: 100.0 mg/kg/injection, schedule: Q01DX001 (ip), vehicle: carboxymethylcellulose (CMC)): 0 of 4
- survivor count (T/C endpoint: mean survival time, dose: 100.0 mg/kg/injection, schedule: Q01DX001 (ip), vehicle: other): 0 of 10
- survivor count (T/C endpoint: mean survival time, dose: 100.0 mg/kg/injection, schedule: Q01DX001 (ip), vehicle: water): 1 of 10
- survivor count (T/C endpoint: mean survival time, dose: 100.0 mg/kg/injection, schedule: Q01DX009 (ip), vehicle: saline): 0 of 6
- survivor count (T/C endpoint: mean survival time, dose: 200.0 mg/kg/injection, schedule: Q01DX001 (ip), vehicle: carboxymethylcellulose (CMC)): 0 of 4
- survivor count [1]: 0 of 4
- T/C (T/C endpoint: median survival time, dose: 1.0 mg/kg/injection, schedule: Q01DX009 (ip), vehicle: saline): 137 % of control
- T/C (T/C endpoint: median survival time, dose: 2.0 mg/kg/injection, schedule: Q01DX009 (ip), vehicle: saline): 133 [5 of 6 alive] and 137 % of control
- T/C (T/C endpoint: median survival time, dose: 4.0 mg/kg/injection, schedule: Q01DX009 (ip), vehicle: saline): 125 and 133 % of control

Structure (SMILES): CCOP(=O)(OCC)O/N=C(/C#N)c1ccccc1
- survivor count (T/C endpoint: mean survival time, dose: 150.0 mg/kg/injection, schedule: Q01DX001 (ip), vehicle: saline): 1 of 6
- survivor count (T/C endpoint: mean survival time, dose: 300.0 mg/kg/injection, schedule: Q01DX001 (ip), vehicle: saline): 0 of 6

Structure (SMILES): CN(C)N=Nc1ccc(CCCC(=O)NN)cc1
- T/C (T/C endpoint: mean survival time, dose: 42.0 mg/kg/injection, schedule: Q01DX009 (ip), vehicle: other): 127 % of control
- T/C (T/C endpoint: mean survival time, dose: 45.0 mg/kg/injection, schedule: Q01DX Z (ip), vehicle: carboxymethylcellulose (CMC)): 142 % of control
- T/C (T/C endpoint: mean survival time, dose: 63.0 mg/kg/injection, schedule: Q01DX009 (ip), vehicle: other): 146 % of control
- survivor count [1]: 1 of 4

Structure (SMILES): CSc1nnc(-c2cccs2)s1
- survivor count (T/C endpoint: mean survival time, dose: 200.0 mg/kg/injection, schedule: Q04DX003 (ip), vehicle: Klucel (hydroxypropylcellulose) (HPC)): 4 of 6
- survivor count (T/C endpoint: mean survival time, dose: 400.0 mg/kg/injection, schedule: Q04DX003 (ip), vehicle: Klucel (hydroxypropylcellulose) (HPC)): 0 of 6

Structure (SMILES): O=C(Cc1c(F)c(F)c(F)c(F)c1F)Nc1ccc(-c2nc3ccccc3s2)cc1
- survivor count (T/C endpoint: mean survival time, dose: 400.0 mg/kg/injection, schedule: Q01DX001 (ip), vehicle: Klucel (hydroxypropylcellulose) (HPC)): 6 of 6
- survivor count (T/C endpoint: mean survival time, dose: 400.0 mg/kg/injection, schedule: Q01DX009 (ip), vehicle: Klucel (hydroxypropylcellulose) (HPC)): 2 of 3

Structure (SMILES): O=Cc1ccc(C(=O)O)cc1O
- survivor count (T/C endpoint: mean survival time, dose: 400.0 mg/kg/injection, schedule: Q04DX003 (ip), vehicle: saline with Tween-80): 2 of 3
